Results are given in words; binding and its absence hold for the method and conditions named. Binding seen in cells or lysates may run through a third protein. Some binding calls cover weakened binding; strength is not graded here. Sequences can lack the tags named with a protein.
Target: TBP-gfp (UniProt P20226)
Test: co-IP; non-denaturing cell lysates (IP/CO-IP kit, Abbkine), pre-cleared with protein A/G agarose beads; incubated with mouse anti-GFP, microspheres coupled with rabbit anti-FLAG, or rabbit IgG overnight at 4°C; washed four times with cold lysis buffer; Western blot

Protein sequences, listed by entry. Tags and fused reporters are not part of them.
UniProt P20226: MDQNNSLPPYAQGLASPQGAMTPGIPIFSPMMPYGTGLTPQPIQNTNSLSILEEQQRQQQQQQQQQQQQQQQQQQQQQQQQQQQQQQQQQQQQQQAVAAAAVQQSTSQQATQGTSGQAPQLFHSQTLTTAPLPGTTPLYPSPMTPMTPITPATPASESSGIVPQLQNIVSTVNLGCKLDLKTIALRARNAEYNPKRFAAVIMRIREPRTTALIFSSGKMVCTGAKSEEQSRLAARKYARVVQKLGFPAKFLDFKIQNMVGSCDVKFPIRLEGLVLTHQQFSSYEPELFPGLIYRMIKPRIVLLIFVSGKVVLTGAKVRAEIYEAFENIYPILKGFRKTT

B1: MROH8-flag (protein, UniProt Q9H579 1-483)
chain: MSSKHRICSQEEVVIPCAYDSDSESVDLELSNLEIIKKGSSSIELTDLDIPDIPGLHCEPLSHSPRHLTQQDPLSEAIVEKLIQSIQKVFNGELKGELEKLKFLGDLSSLSQALPYDETAKSFIHSHIADIVHTLNVLVQEERPHSLSSSMRQEVFVTIADLSYQDVHLLLGSEDRAELFSLTIKSIITLPSVRTLTQIQEIMPNGTCNTECLYRQTFQAFSEMLQSLVVKDPHLENLDTIIKLPLRFQRLGHLVALMALLCGDPQEKVAEEAAEGIHSLLHITLRLKYITHDKKDQQNLKRALTKCREFLELHSSAAKCFYNCPFRIAQVFEGFLDSNELCQFIMTTFDTLKTLKHPCIQRSAGELLLTLAKNTESQFEKVPEIMGVICAQLSIISQPRVRQQIINTVSLFISRPKYTDIVLSFLLCHPVPYNRHLAEVWRMLSVELPSTTWILWRLLRKLQKCHNEPAQEKMAYVAVAVSP
binding: binds

— publication PMC11634154
